Assay results taken from paper PMC10930986.
No constants are given. Whether binding was seen depends on the method and setting. Binding seen in cells or lysates may run through a third protein. Some results given as binding are weak or reduced against the parent protein; the word gives no strength.

Chains of the proteins cited; added tags and fusions are not shown.
UniProt P21796: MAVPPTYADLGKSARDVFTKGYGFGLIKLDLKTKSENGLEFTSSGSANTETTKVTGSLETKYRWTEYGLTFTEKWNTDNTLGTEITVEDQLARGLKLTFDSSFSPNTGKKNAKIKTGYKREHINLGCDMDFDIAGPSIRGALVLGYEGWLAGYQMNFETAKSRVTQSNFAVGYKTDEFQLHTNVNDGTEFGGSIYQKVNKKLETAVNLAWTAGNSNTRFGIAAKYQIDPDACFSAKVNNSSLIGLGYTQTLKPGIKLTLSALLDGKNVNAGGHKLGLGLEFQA
UniProt P49841: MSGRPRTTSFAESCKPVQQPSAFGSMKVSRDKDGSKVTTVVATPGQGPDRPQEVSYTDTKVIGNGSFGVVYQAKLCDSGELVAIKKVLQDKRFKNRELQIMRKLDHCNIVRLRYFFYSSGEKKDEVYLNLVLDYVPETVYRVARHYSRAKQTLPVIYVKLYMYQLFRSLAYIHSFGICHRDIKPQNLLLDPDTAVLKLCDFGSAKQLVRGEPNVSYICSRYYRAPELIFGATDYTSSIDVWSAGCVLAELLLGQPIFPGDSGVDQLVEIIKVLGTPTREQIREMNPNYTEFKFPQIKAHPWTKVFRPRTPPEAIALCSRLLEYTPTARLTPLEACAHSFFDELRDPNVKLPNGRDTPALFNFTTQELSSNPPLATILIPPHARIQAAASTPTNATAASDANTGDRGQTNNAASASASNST

Target: voltage-dependent anion channel 1 (VDAC1) (human (endogenous in MCF-10A, MDA-MB-231, Hs578t)) (UniProt P21796)
Test: co-IP; HKII and GSK3β co-immunoprecipitated with VDAC1; MCF-10A, MDA-MB-231 and Hs578t cells transfected for 48 h with pmOGT-HaloTaq or pHaloTaq (control)

glycogen synthase kinase (GSK3β) (from UniProt P49841 1-420) (enzyme)
binding: binds
